No constants are given. Whether binding was seen depends on the method and setting. For some of these results: In cells and extracts the contact can be indirect. Some binding calls cover weakened binding; strength is not graded here.
Legend:
CD16 (RFcγIII) (human) = CD16 (RFcγIII) (human) (UniProt P08637); assay: anti-CD16 immunoprecipitation from R.P. NK cell lysates, in vitro kinase test
p50.1 KAR (human) [1] = target: p50.1 KAR (human) (UniProt Q14954); assay: anti-CD158 immunoprecipitation from R.P. NK cell lysates, in vitro kinase test
p50.2 KAR = target: T1, p50.2 KAR (human, UniProt P43631 22-304); assay: co-immunoprecipitation with anti-CD158 from 125I-labelled D.F. NK cell lysates, SDS-PAGE
T1 construct: whole, on cells; also called KAR of D.F. NK cells; KAR p50.2

Amino acid sequences for entries named in this document (tags omitted). A change or cut given only in a name is not applied to a line headed by its entry. Residues count along the entry.
UniProt P08637, residues 17-254: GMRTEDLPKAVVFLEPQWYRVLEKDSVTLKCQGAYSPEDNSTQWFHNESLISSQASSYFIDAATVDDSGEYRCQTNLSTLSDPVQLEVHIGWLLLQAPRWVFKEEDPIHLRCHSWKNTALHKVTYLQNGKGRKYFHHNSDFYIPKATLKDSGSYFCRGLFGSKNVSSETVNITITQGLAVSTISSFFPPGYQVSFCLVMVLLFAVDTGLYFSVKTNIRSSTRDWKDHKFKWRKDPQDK
UniProt Q14954, residues 22-304: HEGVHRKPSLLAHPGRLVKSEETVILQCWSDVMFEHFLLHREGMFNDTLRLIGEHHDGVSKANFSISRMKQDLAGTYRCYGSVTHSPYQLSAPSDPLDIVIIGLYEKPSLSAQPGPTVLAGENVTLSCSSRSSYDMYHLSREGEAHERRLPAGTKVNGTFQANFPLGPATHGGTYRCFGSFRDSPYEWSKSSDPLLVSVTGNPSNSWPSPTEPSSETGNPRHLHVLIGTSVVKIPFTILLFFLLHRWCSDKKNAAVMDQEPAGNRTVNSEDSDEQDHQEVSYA
UniProt P43631, residues 22-304: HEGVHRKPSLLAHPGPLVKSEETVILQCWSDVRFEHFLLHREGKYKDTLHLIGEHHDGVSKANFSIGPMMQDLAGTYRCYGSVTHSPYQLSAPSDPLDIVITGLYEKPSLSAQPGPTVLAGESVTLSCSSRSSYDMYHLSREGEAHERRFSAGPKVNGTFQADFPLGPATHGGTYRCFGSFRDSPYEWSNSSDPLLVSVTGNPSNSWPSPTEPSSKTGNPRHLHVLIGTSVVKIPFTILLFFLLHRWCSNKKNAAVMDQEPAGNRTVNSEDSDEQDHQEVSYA
UniProt P43632, residues 22-304: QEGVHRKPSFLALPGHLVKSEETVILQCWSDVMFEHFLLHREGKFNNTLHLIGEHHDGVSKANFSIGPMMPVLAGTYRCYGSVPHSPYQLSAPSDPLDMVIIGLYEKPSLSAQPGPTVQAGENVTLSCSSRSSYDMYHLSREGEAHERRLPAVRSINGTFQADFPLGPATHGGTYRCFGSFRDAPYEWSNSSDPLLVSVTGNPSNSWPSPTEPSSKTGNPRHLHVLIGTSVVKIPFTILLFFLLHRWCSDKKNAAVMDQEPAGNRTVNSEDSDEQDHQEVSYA
UniProt P20963: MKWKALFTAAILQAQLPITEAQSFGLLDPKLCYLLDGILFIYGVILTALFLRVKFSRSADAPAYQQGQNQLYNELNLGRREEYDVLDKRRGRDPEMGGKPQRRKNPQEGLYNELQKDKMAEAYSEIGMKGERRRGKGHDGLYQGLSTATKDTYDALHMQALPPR
UniProt O43914, residues 22-113: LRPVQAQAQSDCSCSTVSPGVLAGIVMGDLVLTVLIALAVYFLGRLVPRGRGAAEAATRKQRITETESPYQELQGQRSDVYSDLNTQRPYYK

p50.3 KAR (human) [2] = target: p50.3 KAR (human) (UniProt P43632); assay: co-immunoprecipitation with anti-CD158 from 125I-labelled MAL. NK cell lysates, SDS-PAGE
p50.3 KAR (human) [3] = target: p50.3 KAR (human) (UniProt P43632); assay: anti-CD158 immunoprecipitation from MAL. NK cell lysates, in vitro kinase test, SDS-PAGE
p50.1 KAR (human) [4] = target: p50.1 KAR (human) (UniProt Q14954); assay: co-immunoprecipitation with EB6 from 125I-labelled R.P. NK cell lysates (1% digitonin), SDS-PAGE
p50.1 KAR (human) [5] = target: p50.1 KAR (human) (UniProt Q14954); assay: anti-CD158 immunoprecipitation from R.P. NK cell lysates, in vitro kinase test, two-dimensional non-denaturing/denaturing SDS-PAGE

Measured: binding

CD3ζ (from UniProt P20963 22-164)
binds: CD16 (RFcγIII) (human)

human KARAP (KAR-associated protein) DAP-12 (from UniProt O43914 22-113)
not listed: CD16 (RFcγIII) (human)
binds: all other assays above
